PMC10163288
Some of the results follow.

B1: il10ra_site1_normal_mot_HHH_b1_02997_000000220_0001_39_52_H_._HHH_b2_00132_0001_0000100012_0000001_0_af2pred_0001 (protein)
chain: SSSSSKESHRIVELIREAIELYAEGNPEEAEEVLREAEELAEEAGNEEALILVEFILERNRSSSS
B2: il10ra_site1_sap_18_mot_HHH_b1_02665_000000293_0001_1_18_H_._HHH_b2_03533_0001_0000400011_0000001_1_0001_af2pred_0001 (protein)
chain: SSSSSSEEEEERVEELLERAEEIPNPKERFKVIREAAELAAELRNPELERLVAEFIKRLLSSSSS
B3: il10ra_site1_normal_mot_HHH_b2_01310_000000089_0001_41_55_H_._HHH_b2_01682_af2_0002_0000800018_0000001_0_af2pred_0001 (protein)
chain: SSSSSSDLEELIEQVEELIERNDEEEAIRVLRELVQLAQKKNDEEAFRAILELAELIKSSSSSSS
B4: il10ra_site1_sap_18_mot_HHH_b1_05357_000000034_0001_23_39_H_._HHH_b1_00213_0001_0000400010_0000001_0_0001 (protein)
chain: SSSSSLEQRAFELMVRAYLLANQGDPEEAEEVLKEAEEVAREGNDRALVLAIEVNLERLESSSSS
B5: il10ra_site1_sap_20_mot_b26a303360aa2756ef5b79665ce52f45_0001_000000179_0001_1_11_H_._HHH_b1_04307_0001_0000100006_0000002_0_0001_af2pred_0001 (protein)
chain: SSSSTLEEDVRSALKAAKILLERGDPEKAEEAAKQAKFLAELANNPELKEEIERLLEEIGSSSSS
B6: il10ra_site1_sap_24_mot_HHH_b1_01901_000000286_0001_1_19_H_._HHH_b1_04306_af2_0001_0000100002_0000002_0_0001 (protein)
chain: SSSSDEREIWQLMVEVYHLAQEGDPKWEELLEEVQELAEELGDPQLRELVEAAERAIRSNSSSSS
B7: il10ra_site1_normal_mot_HHH_b1_06789_af2_000000041_0001_1_20_H_._HHH_b1_08175_0001_0000200006_0000002_0_af2pred_0001 (protein)
chain: SSSSSSAETDVESAEKAVEILLKQGDEEKAEEVVRIAIESARAANSPLAELLERLLEEITSSSSS
B8: il10ra_site1_normal_mot_HHH_b1_05056_000000217_0001_1_20_H_._HHH_b2_01322_0001_0000500053_0000001_0 (protein)
chain: SSSSDEEEFARIVQEVVRLAIRLSDPEALQEVWELVRRYFREGDPRILEELEELLEELEKSSSSS
B9: il10ra_site1_normal_mot_HHH_b1_06363_000000103_0001_21_38_H_._HHH_b2_01051_0001_0000400032_0000001_0_af2pred_0001 (protein)
chain: SSSSSDEHREEVEELLEEAKKIDDDKERWQVLLEAFHIAFENNDEELEEEVKEVAIKLVASSSSS
B10: il10ra_site1_normal_mot_HHH_b1_06341_af2_000000167_0001_17_35_H_._HHH_b1_03523_0001_0000100001_0000002_0 (protein)
chain: SSSSDREEITEKLEEELQELLENNDHERFLRLLEEMARIAIRLRDPELSRIIIKLAREFASSSSS
B11: il10ra_site1_normal_mot_HHH_b2_00475_000000107_0001_44_57_H_._HHH_b1_01897_af2_0001_0000400025_0000001_0 (protein)
chain: SSSSSQEVAQILFEAIHRLFEGNPEEARKLAEEAEEVAQELGDPELERYVRIALHFIEAHSSSSS
B12: il10ra_site1_sap_20_mot_HHH_b2_04327_000000030_0001_41_55_H_._HHH_b2_04747_af2_0001_0000800037_0000002_0_0001 (protein)
chain: SSSSSSEEIYRLLRRAMELRDNGDHEEARELLERAERLAEENNSPVMRVAVRYALEVVEESSSSS
B13: il10ra_site1_sap_16_mot_HHH_b2_00984_000000042_0001_1_20_H_._4c4ac6cabe4c261757e68d3976ab26f5_0001_af2_0001_0000600027_0000001_0_0001 (protein)
chain: SSSSDEDEEYIRMTLEFAKWLIEEGDERAARHFLRAAIELAERLNDEEILEELERLLQELSSSSS
B14: il10ra_site1_sap_21_mot_HHH_b2_00730_000000084_0001_1_16_H_._HHH_b1_07822_0001_0000100001_0000002_0_0001_af2pred_0001 (protein)
chain: SSSSSISERILELLREALELINRGDPEEAEEVLEEAQRLAEEAGNEVFRWAVESLLKRLKSSSSS
B15: il10ra_site1_sap_22_mot_HHH_b1_02665_000000293_0001_1_18_H_._HHH_b1_08591_af2_0001_0000500011_0000001_0_0001 (protein)
chain: SSSSSEEVEELLEEARELLEKGNPEEAIEVLARAVRFALRLGDEELLQLVWELVREVAETSSSSS
B16: il10ra_site1_sap_26_mot_HHH_b1_01082_af2_000000031_0001_3_19_H_._HHH_b2_01541_af2_0001_0000500046_0000001_0_0001 (protein)
chain: SSSSNLEELVRAALRLAEQAVKWGDPRAAELLLKALLEALERNNDPELVREVEELLEEIRGSSSS
B17: il10ra_site1_sap_19_mot_HHH_b1_03900_000000129_0001_1_16_H_._HHH_b2_05682_0001_0000300033_0000001_1_0001 (protein)
chain: SSSSDTEEYAEEVAEQLRELAEEGDREEFARLMLEALQFVIERTNAEALRILWRVVKELASSSSS
B18: il10ra_site1_normal_mot_HHH_b1_02809_af2_000000277_0001_40_57_H_._HHH_b2_02247_af2_0001_0000100005_0000002_0_af2pred_0001 (protein)
chain: SSSSDEAEKAIRILLQAAKRLEEQGNEEFAKLALRDALAAAKAINDEELFKEVRRLLEELNSSSS
B19: il10ra_site1_normal_mot_HHH_b1_00666_000000226_0001_43_56_H_._HHH_b1_07038_0001_0000200019_0000001_0 (protein)
chain: SSSSDIEEEIERLIEEARELLEEGDPEEANRVLQRAVQLAFRASNEELLEEIWRLALESASSSSS
B20: il10ra_site1_normal_mot_e1dd4851c59bc1cdde016f988f6856bd_0001_1_000000200_0001_16_31_H_._HEEHE_1920_af2_0001_0000800009_0000001_0_af2pred_dldesign_0_af2pred (protein)
chain: SKVEKLRLALDYLAEKLNVPKVVVEEVDGKVVVTITGTSPAAEALARAAEYVADSLGLEVEVRIV
B21: il10ra_site1_normal_mot_HHH_b2_02116_af2_000000165_0001_41_55_H_._ems_3hC_506_0001_0000700023_0000001_0_af2pred_0001 (protein)
chain: SSTAAEVAKRVLEERFEEAEENNDKEALRQIALLARAAARLFRDPELEKFAEELKRLAEELDSSS
B22: il10ra_site1_normal_mot_HHH_b1_07743_af2_000000164_0001_42_55_H_._HHH_b2_01433_0001_0000200017_0000001_0 (protein)
chain: SSSSSEEARRVAELNVEADELALRGNPEEAREVLEEAREIAEEAGNDILRAQVESARRLVESSSS
B23: il10ra_site1_sap_13_mot_HHH_b1_03574_000000194_0001_1_18_H_._HHH_b2_00707_0001_0000100003_0000002_0_0001 (protein)
chain: SSSSDKEVHQIAFEALVRAQRLADRGDPEEAQRLLEELVEELEELGNPRLAEAARVAIEWFSSSS
B24: il10ra_site1_sap_21_mot_HHH_b1_01879_000000050_0001_1_18_H_._HHH_b1_04482_0001_0000100001_0000001_0_0001 (protein)
chain: SSSSDEVEELFEQLKELAEELNDRATEFLAKQALKAYRLSGDELVEEALRNLVRLLEERLNSSSS
B25: il10ra_site1_sap_16_mot_HHH_b1_04905_af2_000000228_0001_1_17_H_._d19391ccd5e4f9f9722e25c964c800ff_0001_af2_0001_0000700028_0000001_0_0001 (protein)
chain: SSSSDEAYEIAEEAIERAIKLLRNGNPEEAEELLREAIELVEELGNWAAVWALRHLLRLVSSSSS
B26: il10ra_site1_normal_mot_8756ee2cf497b5429c717dfc0c0bcfd6_0001_000000186_0001_1_13_H_._HHH_b1_08028_0001_0000200020_0000001_1_af2pred_0001 (protein)
chain: SSSSSSTEEVARLSEEALELAQKDPEEAREVLERAREIAEELGNAVLEAIIRFLEELIERDSSSS
B27: il10ra_site1_normal_mot_HHH_b2_00984_000000042_0001_1_20_H_._HHH_b2_03422_0001_0000100005_0000001_0 (protein)
chain: SSSSDEEVQEEVERLLEEAEHIEDPKELNRVLLEALQLAIQAQDEELLQLVWEVIKKLAENSSSS
B28: il10ra_site1_sap_11_mot_HHH_b1_03873_af2_000000091_0001_1_14_H_._456536b65d10dbd81ff7701267a43f31_0001_1_0001_0000800029_0000001_0_0001_af2pred_dldesign_0_af2pr … (protein)
chain: SLRDILERLLETRDPALVDEAEAAATAAAEADPNNLKAILTLQALRAYRLTGDPSIVEQALNIAE
B29: il10ra_site1_normal_mot_HHH_b1_00992_000000182_0001_23_40_H_._HHH_b1_08435_0001_0000300017_0000002_0 (protein)
chain: SSSSSDAEEYLELSLRFAKFLAENGDPEAARRILHAAIDIARKNGDEEIVQELEELLEELSSSSS
B30: il10ra_site1_normal_mot_HHH_b1_04514_000000156_0001_1_18_H_._HHH_b1_03241_0001_0000100007_0000001_0 (protein)
chain: SSSSYEEVKELIEEIIELAREGNPEEAEKVLRELERLAEELNNPAIRFVVRLLEEVIERQSSSSS
B31: il10ra_site1_sap_32_mot_HHH_b1_03262_af2_000000181_0001_43_57_H_._HHH_b1_07369_0001_0000100002_0000002_0_0001 (protein)
chain: SSSSSSDIERYVKMALRFAKRIQDEEARRFMLRAAEEMAKRANDEELHEEVEEVIRELSSSSSSS
B32: il10ra_site1_normal_mot_HHH_b2_04275_000000272_0001_20_36_H_._HHH_b1_04109_0001_0000400023_0000001_0 (protein)
chain: SSSSTEENRRIYELLRELARLVHEGDEEEFERVVEEIERLIEEAGNENLEAQLRFLERIFNSSSS
B33: il10ra_site1_normal_mot_HHH_b1_06789_af2_000000041_0001_1_20_H_._HHH_b1_02475_0001_0000600043_0000001_0_1_af2pred_0001 (protein)
chain: SSSSSTSAEHLVRLALLAVELAAKLDPEKAERALEIAELLARQANNEELEERVEELKKELSSSSS
B34: il10ra_site1_sap_18_mot_HHH_b1_06816_000000239_0001_1_19_H_._HHH_b1_05231_af2_0001_0000500018_0000001_0_0001_af2pred_0001 (protein)
chain: SSSSSEEVRQRAREIYEELKELLEEGDEERVQKLSHELAELALKGRDREAARLASEIIQLLSSSS
B35: il10ra_site1_sap_18_mot_HHH_b2_00622_af2_000000153_0001_40_57_H_._3cb01cd59277439e4f5c2b5f7f6b6153_0001_1_0001_0000400007_0000001_0_0001_af2pred_0001 (protein)
chain: SSSSDVHERVEELLEEARELAEEGDKEKVLQLLFEAARIAQENNNEELLREILEVAARLLSSSSS
B36: il10ra_site1_sap_20_mot_HHH_b2_01447_af2_000000258_0001_1_20_H_._HHH_b1_05841_af2_0001_0000300026_0000001_0_0001_af2pred_0001 (protein)
chain: SSSSSEEERRVVQLLLEALRAIREGDEEKVEELLEEARRLAEELNNPELELLVKLVEAQRESSSS
B37: il10ra_site1_sap_20_mot_HHH_b1_05056_000000217_0001_1_20_H_._HHH_b2_07317_0001_0000300031_0000001_0_0001 (protein)
chain: SSSSSDYEEEVEELLEEAERIEDPEEAARVLQKAVRLAIHAQDPELLRLVWEVVHKIAGSSSSSS

Each binder was assayed against il10ra, Q13651 (assay: yeast display titration).

Apparent Kd, inactive:
B1 no binding seen
B2 no binding seen
B3 no binding seen
B4 no binding seen
B5 no binding seen
B6 no binding seen
B7 no binding seen
B8 no binding seen
B9 no binding seen
B10 no binding seen
B11 no binding seen
B12 no binding seen
B13 no binding seen
B14 no binding seen
B15 no binding seen
B16 no binding seen
B17 no binding seen
B18 no binding seen
B19 no binding seen
B20 no binding seen
B21 no binding seen
B22 no binding seen
B23 no binding seen
B24 no binding seen
B25 no binding seen
B26 no binding seen
B27 no binding seen
B28 no binding seen
B29 no binding seen
B30 > 786 nM
B31 no binding seen
B32 no binding seen
B33 no binding seen
B34 no binding seen
B35 no binding seen
B36 no binding seen
B37 no binding seen

Not a retest: entries from further up.
Apparent Kd, inactive:
B9 no binding seen
B10 no binding seen
B11 no binding seen
B12 no binding seen
B13 no binding seen
B14 no binding seen
B15 no binding seen
B16 no binding seen
B17 no binding seen
B18 no binding seen
